The record followed here is BindingDB's records for doi:10.1016/s0028-3908(97)00049-x (Roche Bioscience, 1997).

By UniProt entry, the sequences of proteins in these tests, tags left out.
UniProt P41595, whole entry: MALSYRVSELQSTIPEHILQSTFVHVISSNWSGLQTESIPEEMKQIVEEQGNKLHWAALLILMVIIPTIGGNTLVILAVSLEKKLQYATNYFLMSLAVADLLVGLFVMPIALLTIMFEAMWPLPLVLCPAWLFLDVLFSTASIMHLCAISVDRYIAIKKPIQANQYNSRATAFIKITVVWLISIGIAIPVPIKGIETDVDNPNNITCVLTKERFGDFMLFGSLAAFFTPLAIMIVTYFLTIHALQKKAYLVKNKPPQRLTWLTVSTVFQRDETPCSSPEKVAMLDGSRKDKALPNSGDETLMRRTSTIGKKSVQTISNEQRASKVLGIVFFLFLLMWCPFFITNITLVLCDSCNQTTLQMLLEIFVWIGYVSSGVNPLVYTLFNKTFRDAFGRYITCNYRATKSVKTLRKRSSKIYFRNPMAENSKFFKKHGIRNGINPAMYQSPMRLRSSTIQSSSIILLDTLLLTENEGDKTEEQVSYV

Structures are written as SMILES.

The target of the test is 5-hydroxytryptamine receptor 2B (Homo sapiens, UniProt P41595).

For `CC[C@@H](CO)NC(=O)[C@@H]1C=C2c3cccc4c3c(cn4C)C[C@H]2N(C)C1`, the Ki (in general, a dissociation constant, usually derived from enzyme kinetics or from competition with a known ligand) turned out to be 1.65 nM.
